For 1 molecule, binding results are on record in publication PMC2958818.

Amino acid sequences for entries named in this document (tags omitted). A change or cut given only in a name is not applied to a line headed by its entry.
UniProt Q92878: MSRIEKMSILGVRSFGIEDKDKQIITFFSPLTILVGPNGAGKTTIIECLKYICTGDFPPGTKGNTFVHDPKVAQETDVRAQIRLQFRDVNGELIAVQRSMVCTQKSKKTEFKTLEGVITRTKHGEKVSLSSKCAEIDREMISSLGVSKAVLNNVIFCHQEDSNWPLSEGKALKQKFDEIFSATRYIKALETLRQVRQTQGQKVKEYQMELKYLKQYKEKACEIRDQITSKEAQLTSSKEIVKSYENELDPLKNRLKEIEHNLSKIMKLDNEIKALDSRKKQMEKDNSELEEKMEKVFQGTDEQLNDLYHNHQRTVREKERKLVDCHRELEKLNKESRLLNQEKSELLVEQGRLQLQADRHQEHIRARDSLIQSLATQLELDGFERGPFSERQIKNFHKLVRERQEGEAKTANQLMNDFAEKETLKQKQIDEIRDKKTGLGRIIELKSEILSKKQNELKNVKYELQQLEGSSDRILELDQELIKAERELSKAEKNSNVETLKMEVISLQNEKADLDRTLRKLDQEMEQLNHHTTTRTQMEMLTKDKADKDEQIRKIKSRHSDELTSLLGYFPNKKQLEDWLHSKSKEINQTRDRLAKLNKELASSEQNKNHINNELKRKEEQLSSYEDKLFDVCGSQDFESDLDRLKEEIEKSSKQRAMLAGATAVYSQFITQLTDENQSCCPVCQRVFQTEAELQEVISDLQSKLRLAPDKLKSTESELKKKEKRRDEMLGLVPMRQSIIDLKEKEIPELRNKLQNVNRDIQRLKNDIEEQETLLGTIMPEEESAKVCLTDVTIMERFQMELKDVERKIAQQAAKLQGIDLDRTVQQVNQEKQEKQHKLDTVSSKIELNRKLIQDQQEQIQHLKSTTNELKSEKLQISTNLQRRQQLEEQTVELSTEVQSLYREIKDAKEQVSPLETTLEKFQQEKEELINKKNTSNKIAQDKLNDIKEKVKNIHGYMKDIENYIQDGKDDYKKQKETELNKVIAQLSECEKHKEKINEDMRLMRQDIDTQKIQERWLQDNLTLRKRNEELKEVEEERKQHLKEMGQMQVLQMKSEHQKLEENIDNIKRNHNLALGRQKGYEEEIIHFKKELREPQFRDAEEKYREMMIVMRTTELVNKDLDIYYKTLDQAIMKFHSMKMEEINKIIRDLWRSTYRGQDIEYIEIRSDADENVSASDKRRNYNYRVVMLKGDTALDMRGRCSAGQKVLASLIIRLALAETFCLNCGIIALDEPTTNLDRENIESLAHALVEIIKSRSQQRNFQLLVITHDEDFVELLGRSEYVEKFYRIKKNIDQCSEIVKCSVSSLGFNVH
UniProt P49959: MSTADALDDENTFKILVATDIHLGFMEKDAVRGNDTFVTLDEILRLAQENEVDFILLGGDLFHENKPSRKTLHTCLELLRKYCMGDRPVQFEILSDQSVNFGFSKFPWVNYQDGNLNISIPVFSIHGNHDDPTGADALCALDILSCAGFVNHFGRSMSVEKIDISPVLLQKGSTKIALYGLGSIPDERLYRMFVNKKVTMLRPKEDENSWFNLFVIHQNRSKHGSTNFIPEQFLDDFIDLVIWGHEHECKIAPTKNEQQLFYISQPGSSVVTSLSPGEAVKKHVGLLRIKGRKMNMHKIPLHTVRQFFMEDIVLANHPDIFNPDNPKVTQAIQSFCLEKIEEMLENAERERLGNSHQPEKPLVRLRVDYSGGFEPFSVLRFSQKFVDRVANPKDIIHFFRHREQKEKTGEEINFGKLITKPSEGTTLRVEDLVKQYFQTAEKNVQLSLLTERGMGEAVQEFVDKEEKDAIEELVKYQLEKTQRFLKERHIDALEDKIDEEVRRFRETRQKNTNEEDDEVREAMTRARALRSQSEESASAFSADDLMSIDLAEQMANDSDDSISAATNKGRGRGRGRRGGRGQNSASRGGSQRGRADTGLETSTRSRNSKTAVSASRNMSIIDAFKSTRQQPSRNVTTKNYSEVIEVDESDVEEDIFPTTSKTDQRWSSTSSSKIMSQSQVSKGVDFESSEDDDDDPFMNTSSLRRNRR
UniProt O60934: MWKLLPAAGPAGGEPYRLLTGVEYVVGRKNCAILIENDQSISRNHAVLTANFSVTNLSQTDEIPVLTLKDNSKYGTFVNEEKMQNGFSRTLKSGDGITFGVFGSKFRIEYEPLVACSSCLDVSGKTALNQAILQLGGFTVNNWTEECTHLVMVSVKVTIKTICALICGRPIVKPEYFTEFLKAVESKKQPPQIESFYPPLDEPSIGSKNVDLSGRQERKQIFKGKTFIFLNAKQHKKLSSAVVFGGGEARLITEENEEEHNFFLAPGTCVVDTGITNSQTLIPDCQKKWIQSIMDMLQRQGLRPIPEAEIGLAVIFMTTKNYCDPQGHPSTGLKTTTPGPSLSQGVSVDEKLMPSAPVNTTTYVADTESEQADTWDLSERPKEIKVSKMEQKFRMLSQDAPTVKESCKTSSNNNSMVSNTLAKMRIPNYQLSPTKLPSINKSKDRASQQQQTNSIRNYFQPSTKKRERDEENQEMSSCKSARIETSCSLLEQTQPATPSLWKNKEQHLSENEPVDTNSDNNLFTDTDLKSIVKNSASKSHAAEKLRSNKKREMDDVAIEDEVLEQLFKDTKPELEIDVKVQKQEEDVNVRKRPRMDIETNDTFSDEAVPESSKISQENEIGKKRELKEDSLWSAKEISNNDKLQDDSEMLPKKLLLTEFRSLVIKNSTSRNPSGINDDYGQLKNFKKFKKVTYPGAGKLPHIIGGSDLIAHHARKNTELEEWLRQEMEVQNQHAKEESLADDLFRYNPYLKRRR

The target of test [1] is biotinylated human MRN (E185) complex (Mre11, Rad50, Nbs1 E185) (human) (UniProt Q92878+P49959+O60934). Kind of test: pull-down; 20 nM biotinylated MRN complex incubated with 45 nM Mdc1 (aa 1-740) in buffer A (100 mM NaCl, 25 mM Tris pH8, 10% glycerol, 1 mM DTT) 1 hour at 30°C, isolated with streptavidin-coated magnetic beads with 0.2% CHAPS at 4°C; western blot anti-Flag and anti-Nbs1; both purified.

The target of test [2] is biotinylated human MRN (Q185) complex (Mre11, Rad50, Nbs1 Q185) (human) (UniProt Q92878+P49959+O60934). The test is described as above.

No constants are given. Whether binding was seen depends on the method and setting. Some binding calls cover weakened binding; strength is not graded here. Where a sequence is shown, tags or fusion partners need not be part of it.

B1: N-terminal Flag-tagged fragment of Mdc1 containing amino acids 1 to 740 (domain or fragment, UniProt Q14676 1-740)
chain: MEDTQAIDWDVEEEEETEQSSESLRCNVEPVGRLHIFSGAHGPEKDFPLHLGKNVVGRMPDCSVALPFPSISKQHAEIEILAWDKAPILRDCGSLNGTQILRPPKVLSPGVSHRLRDQELILFADLLCQYHRLDVSLPFVSRGPLTVEETPRVQGETQPQRLLLAEDSEEEVDFLSERRMVKKSRTTSSSVIVPESDEEGHSPVLGGLGPPFAFNLNSDTDVEEGQQPATEEASSAARRGATVEAKQSEAEVVTEIQLEKDQPLVKERDNDTKVKRGAGNGVVPAGVILERSQPPGEDSDTDVDDDSRPPGRPAEVHLERAQPFGFIDSDTDAEEERIPATPVVIPMKKRKIFHGVGTRGPGAPGLAHLQESQAGSDTDVEEGKAPQAVPLEKSQASMVINSDTDDEEEVSAALTLAHLKESQPAIWNRDAEEDMPQRVVLLQRSQTTTERDSDTDVEEEELPVENREAVLKDHTKIRALVRAHSEKDQPPFGDSDDSVEADKSSPGIHLERSQASTTVDINTQVEKEVPPGSAIIHIKKHQVSVEGTNQTDVKAVGGPAKLLVVSLEEAWPLHGDCETDAEEGTSLTASVVADVRKSQLPAEGDAGAEWAAAVLKQERAHEVGAQGGPPVAQVEQDLPISRENLTDLVVDTDTLGESTQPQREGAQVPTGREREQHVGGTKDSEDNYGDSEDLDLQATQCFLENQGLEAVQSMEDEPTQAFMLTPPQELGPSHCSFQTT
Consider B1, for which the binding result in test [1] and in test [2] was “binds” throughout.
